From PMC12197943

Target: GP2a-mCherry (PRRSV-2 strain CH-1a)
Experiment: co-IP; GP2a with autophagy receptors (SQSTM1/p62, NDP52, TOLLIP, NBR1, OPTN); cells, tags and precipitating antibody not told

B1: NDP52 (protein, UniProt Q13137 1-446)
chain: MEETIKDPPTSAVLLDHCHFSQVIFNSVEKFYIPGGDVTCHYTFTQHFIPRRKDWIGIFRVGWKTTREYYTFMWVTLPIDLNNKSAKQQEVQFKAYYLPKDDEYYQFCYVDEDGVVRGASIPFQFRPENEEDILVVTTQGEVEEIEQHNKELCKENQELKDSCISLQKQNSDMQAELQKKQEELETLQSINKKLELKVKEQKDYWETELLQLKEQNQKMSSENEKMGIRVDQLQAQLSTQEKEMEKLVQGDQDKTEQLEQLKKENDHLFLSLTEQRKDQKKLEQTVEQMKQNETTAMKKQQELMDENFDLSKRLSENEIICNALQRQKERLEGENDLLKRENSRLLSYMGLDFNSLPYQVPTSDEGGARQNPGLAYGNPYSGIQESSSPSPLSIKKCPICKADDICDHTLEQQQMQPLCFNCPICDKIFPATEKQIFEDHVFCHSL
binding: binds weakly

Results are given in words; binding and its absence hold for the method and conditions named. In cells and extracts the contact can be indirect. Binding calls can cover weak binding; strength is not graded here.
